Values of other authors as cited in US20210299077A1, “LIPOSOMAL REDUCED GLUTATHIONE (LRG) IN COMBINATION WITH IVERMECTIN FOR THE TREATMENT OF COVID-19” (Your Energy Systems, LLC, priority 2020, published 2021).
At least one compound was matched to its structure with a doubt left.

Tested on: SARS-CoV-2

SMILES: CCC(CC)COC(=O)[C@H](C)N[P@](=O)(OC[C@H]1O[C@@](C#N)(c2ccc3c(N)ncnn23)[C@H](O)[C@@H]1O)Oc1ccccc1 [Remdesivir]
- in-vitro activity against SARS-CoV-2: has in-vitro activity against SARS-CoV-2
